Values quoted from earlier work in patent publication US20250176603A1, “Vegetable-Based Food Product” (L-CONE SP. Z O. O., priority 2023, published 2025).
At least one structure is not confirmed: it was looked up by name or label, or the drawing left a doubt.

Protein sequences, listed by entry. Tags and fused reporters are not part of them.
UniProt P10415, whole entry: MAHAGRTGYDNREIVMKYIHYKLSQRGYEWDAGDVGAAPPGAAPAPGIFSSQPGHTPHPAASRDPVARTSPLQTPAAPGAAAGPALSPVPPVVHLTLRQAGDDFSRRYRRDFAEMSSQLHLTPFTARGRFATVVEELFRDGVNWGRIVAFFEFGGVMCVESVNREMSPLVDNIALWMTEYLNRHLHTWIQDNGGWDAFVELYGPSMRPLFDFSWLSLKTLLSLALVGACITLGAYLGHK

Biological target: Bcl-2 (Homo sapiens, UniProt P10415)

SMILES: O=C(/C=C/C=C/c1ccc2c(c1)OCO2)N1CCCCC1 [piperine]
- binding (molecular docking): binding
